# Assay results from article PMC7819943, “Rice protein-binding microarrays: a tool to detect cis-acting elements near promoter regions in rice”.
# Sequences of proteins named here, by UniProt entry; tags and fusion partners are left off.
# UniProt Q0JBA9, entry or part of it: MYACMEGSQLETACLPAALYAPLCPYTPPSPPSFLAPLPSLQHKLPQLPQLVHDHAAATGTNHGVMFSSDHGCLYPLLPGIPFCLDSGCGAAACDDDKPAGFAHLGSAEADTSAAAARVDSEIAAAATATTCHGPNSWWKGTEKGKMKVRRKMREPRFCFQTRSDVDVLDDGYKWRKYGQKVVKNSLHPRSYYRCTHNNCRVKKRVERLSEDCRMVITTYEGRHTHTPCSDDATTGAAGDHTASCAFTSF
# The list shows a part of the results.
# Target: OsWRKY34 (Oryza sativa, UniProt Q0JBA9 1-250)
# Experiment: protein-binding microarray (RPBM); PBS, 2% BSA, 51.3 ng/ul salmon testes DNA, 50 uM zinc acetate, 200 nM TF, 25 C, 1 h; high values mean tight binding
# Details: protein: recombinant; tags: N-terminal polyhistidine and DsRed monomer fusion (pET32a); label: CyDye5-dUTP incorporated in the synthesized complementary strand; 3' TTTTT single-stranded linker to array surface; dsDNA, one strand shown
# Method in brief: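 For the binding signal, per-feature fluorescence intensity was read in arbitrary units on an Axon 4000B scanner. Before scanning, a 2% BSA-blocked custom Agilent array made double-stranded with Cy5-dUTP was washed after 1 h at 25 °C with 200 nM protein and 50 µM zinc acetate. The proteins were Ni–NTA-purified transcription factors with N-terminal polyhistidine and DsRed fusions, expressed in E. coli BL21-CodonPlus.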
row,Sequence,binding signal
1,GGATTTTAAGTTTTTACTTGCACTGTTTGACCATTCGTCTCGGAGTCACCTAGTGCAG,9200 fluorescence intensity (a.u.)
2,TTAAGTAATCAGCACATCATCACTGCATAATTATTGCCATCGGAGTCACCTAGTGCAG,8590 fluorescence intensity (a.u.)
3,GACATGTAGGGTCCATGTGGATCGCACGTTGACTCAGCCGCGGAGTCACCTAGTGCAG,8620 fluorescence intensity (a.u.)
4,CGTGCAGCTGTCAAACGCTTTCAATCTGGCGGGGTTTATTCGGAGTCACCTAGTGCAG,12600 fluorescence intensity (a.u.)
5,ATATGTTTGTTTTGCATTGAAAATATTGCTATATTTTTCTCGGAGTCACCTAGTGCAG,9220 fluorescence intensity (a.u.)
6,TTCTACGCACAGCTTCGATTAATTACCACTTTTCTCGTATCGGAGTCACCTAGTGCAG,8080 fluorescence intensity (a.u.)
7,CAATGTTGTCGGCAACGCCGCAGCCGAGCAGCCTGCATCCCGGAGTCACCTAGTGCAG,8660 fluorescence intensity (a.u.)
8,TCCTCTCTGGTTGGTTTAGTTCTTGTGATTTAATCTTACACGGAGTCACCTAGTGCAG,9700 fluorescence intensity (a.u.)
9,AATAATAAGAACGGTCAAACATATGCTAAAAAGTCAACGGCGGAGTCACCTAGTGCAG,11500 fluorescence intensity (a.u.)
10,ACGACGGGACGCGTTTTTTTCCCGGCTCTACCTCTGCAAGCGGAGTCACCTAGTGCAG,8510 fluorescence intensity (a.u.)
11,ATCCCGGCGAGCTTCTCCTTCGCGCCCGGCCGGCCGCAGCCGGAGTCACCTAGTGCAG,8560 fluorescence intensity (a.u.)
12,AGTGATCGATAATCCTGCTCCTTTTTTATTACTTATTTTTCGGAGTCACCTAGTGCAG,8680 fluorescence intensity (a.u.)
13,ATAGTACGTACTTTTTCCTTTTTCAGTATCCCTGTGGCGTCGGAGTCACCTAGTGCAG,8290 fluorescence intensity (a.u.)
14,GAGCTCCTATTACACCGGGAAACGGGAGCCTTGCTTTGACCGGAGTCACCTAGTGCAG,8290 fluorescence intensity (a.u.)
15,TTCTTCTTGTGTACTACTGCTACATTATATGCTTCGCCTCCGGAGTCACCTAGTGCAG,9820 fluorescence intensity (a.u.)
16,AGTCTATTTTTCCTTCCTGTGCTTTGGGTAGTGCCTTATACGGAGTCACCTAGTGCAG,9480 fluorescence intensity (a.u.)
17,TCCTCTTCATCGTTATCTCTATTTTCTTTCACGTTATTAGCGGAGTCACCTAGTGCAG,14100 fluorescence intensity (a.u.)
18,GTTGCTGATTTCTTTCGCTTTCTTTTTTCGTTGCAATGCGCGGAGTCACCTAGTGCAG,8050 fluorescence intensity (a.u.)
19,ACTCTCATGCATATTAGTCATCAAGTTGAATTGGCCCTGACGGAGTCACCTAGTGCAG,10000 fluorescence intensity (a.u.)
20,ATTTCAGTTATTTTCAAATTGTATTCCTACTTGAACTCTTCGGAGTCACCTAGTGCAG,8660 fluorescence intensity (a.u.)
21,CAGACAGCTCGCCCTGCACACACACACACACTCACACTCACGGAGTCACCTAGTGCAG,8290 fluorescence intensity (a.u.)
22,CCATGTCGTGCTCAGCAATTTGTTTCTGCCACCGGCGGCGCGGAGTCACCTAGTGCAG,9490 fluorescence intensity (a.u.)
23,AGCTCCACACTTCATGTGCCAATTATTCATGGTTTCTCAACGGAGTCACCTAGTGCAG,9500 fluorescence intensity (a.u.)
24,ATAGCCCGCTGCTATTCTCTCTTCTTATTTATCTTATTAACGGAGTCACCTAGTGCAG,9000 fluorescence intensity (a.u.)
25,TCTGGACTACCTGAGCGACTTGGTCTCGTCTCCTCGTCTTCGGAGTCACCTAGTGCAG,10200 fluorescence intensity (a.u.)
26,CCTCTCTTTTACCCATTTTTCATTACTATTCTATAACAAACGGAGTCACCTAGTGCAG,8940 fluorescence intensity (a.u.)
27,CGATTCCAGCGCGGTGGGGTGGGCGAGGTGCGTGGCCATGCGGAGTCACCTAGTGCAG,8560 fluorescence intensity (a.u.)

row,Sequence,binding signal
1,ATGCCACCCGTATCTCAATGACATATAGGACCCACATGAGCGGAGTCACCTAGTGCAG,8780 fluorescence intensity (a.u.)
2,TGTTGCCTATTATATTTCGTGCATGGGCTTTCTTTTCTCGCGGAGTCACCTAGTGCAG,15300 fluorescence intensity (a.u.)
3,GGTTATCACTTCCCTTAATCTCTGCTCAGGTTGTTGTTTTCGGAGTCACCTAGTGCAG,8490 fluorescence intensity (a.u.)
4,TATTTCTGACTTGTGATCTGCGAGCGCTGTGAAGGTGGGGCGGAGTCACCTAGTGCAG,10000 fluorescence intensity (a.u.)
5,CATTACATTAGTCTCTTAATATCGGTTATGTCAGGGTTATCGGAGTCACCTAGTGCAG,8440 fluorescence intensity (a.u.)
6,CTTTTCGTTGGCGTGGGTGGGAAGAAGAAGGCGAGACTTGCGGAGTCACCTAGTGCAG,9840 fluorescence intensity (a.u.)
7,ACTCTTTCGGATTTATTACCGCTTGATTGCCACACAAATTCGGAGTCACCTAGTGCAG,10200 fluorescence intensity (a.u.)
8,GTTCAATTCTCGAGTTCTTGCACTATATTGCACCTACCCGCGGAGTCACCTAGTGCAG,10100 fluorescence intensity (a.u.)
9,CCCACCGTTTGCCTACTTTTTATCTCCGTCCTCTTGGATTCGGAGTCACCTAGTGCAG,9560 fluorescence intensity (a.u.)
10,GACAAGTTGAGGGACCTTCGGTGTACTTTTTCCTTTTTCCCGGAGTCACCTAGTGCAG,8420 fluorescence intensity (a.u.)
11,GAGGGAGGAAAGGGAGGTGGGGCCGGCTTGGCAGTGGCTCCGGAGTCACCTAGTGCAG,9630 fluorescence intensity (a.u.)
12,GCCGCTGTTGCCTCTTGCTTCGTTGTCGTCACCGCTGCCGCGGAGTCACCTAGTGCAG,10600 fluorescence intensity (a.u.)
13,TTACCAGAGTTACTCCGTTTTGCTTGTACAGTTTCCGGTTCGGAGTCACCTAGTGCAG,9580 fluorescence intensity (a.u.)
14,CGATGGTACGGATAGATGCTGCTCTGTGTGGTTGAGGTGACGGAGTCACCTAGTGCAG,8170 fluorescence intensity (a.u.)
15,AGTGCGTCGTCGTGTCTTCTCTTTCCTCTATTTTATCACCCGGAGTCACCTAGTGCAG,8060 fluorescence intensity (a.u.)
16,CACGTGTCCCATACGCCGTTTCACACTTTTTTTCTAGACGCGGAGTCACCTAGTGCAG,8670 fluorescence intensity (a.u.)
17,AACTATTTATCCACCACAGTCCATATATAATTGAAATTGCCGGAGTCACCTAGTGCAG,9630 fluorescence intensity (a.u.)
18,CTTCTCATACTATTTTCTTGTTTAACATGCGGAAACCAACCGGAGTCACCTAGTGCAG,8960 fluorescence intensity (a.u.)
19,CCGATTCCCTCCTATATTCTCGTTTCCCGCGGCTCAACCGCGGAGTCACCTAGTGCAG,11800 fluorescence intensity (a.u.)
20,TTATTTTGAGAAGATGCCCTGAACCTGATCAGGGCCGAGTCGGAGTCACCTAGTGCAG,9000 fluorescence intensity (a.u.)
21,TCCTCACGCAATTTCTCGGTTTAAACTTACTCTCCCTTTCCGGAGTCACCTAGTGCAG,11900 fluorescence intensity (a.u.)
22,CAACACGTATAGCCTTTTCGAACATTATTCCTTTTTTTTCCGGAGTCACCTAGTGCAG,12300 fluorescence intensity (a.u.)
23,GTTTGCTTCTGTTTCTTTGGAACCAAATATTCTTGCCATACGGAGTCACCTAGTGCAG,8850 fluorescence intensity (a.u.)
24,TCGTTCATTTTAGGTCCCTCGGTGGTTTTGACCCCAGTTTCGGAGTCACCTAGTGCAG,12500 fluorescence intensity (a.u.)
25,CACCCTGTCTCACTGTCGCCCCACTTTGACCACCGCCGCCCGGAGTCACCTAGTGCAG,10400 fluorescence intensity (a.u.)
26,ACATTAGGTTGGAGTGGATTATTTTTTTCTATTCTTTTCCCGGAGTCACCTAGTGCAG,12000 fluorescence intensity (a.u.)
27,TACTGTAGCATCATTGTAGCGTATAGCCGCGCCCCTATCGCGGAGTCACCTAGTGCAG,8300 fluorescence intensity (a.u.)

# 3 neighbouring entries out of the list so far, quoted:
row,Sequence,binding signal
8,GTTCAATTCTCGAGTTCTTGCACTATATTGCACCTACCCGCGGAGTCACCTAGTGCAG,10100 fluorescence intensity (a.u.)
9,CCCACCGTTTGCCTACTTTTTATCTCCGTCCTCTTGGATTCGGAGTCACCTAGTGCAG,9560 fluorescence intensity (a.u.)
10,GACAAGTTGAGGGACCTTCGGTGTACTTTTTCCTTTTTCCCGGAGTCACCTAGTGCAG,8420 fluorescence intensity (a.u.)
